From PMC12501022
These are yes or no findings as the source states them, for the method shown. Binding seen in cells or lysates may run through a third protein. A yes stands for co-enrichment or nearness to the bait. Other partners may have been found. Blank lines part the entries; values can stand above or below the molecule they belong to.

Protein sequences, listed by entry. Tags and fused reporters are not part of them.
UniProt P08670: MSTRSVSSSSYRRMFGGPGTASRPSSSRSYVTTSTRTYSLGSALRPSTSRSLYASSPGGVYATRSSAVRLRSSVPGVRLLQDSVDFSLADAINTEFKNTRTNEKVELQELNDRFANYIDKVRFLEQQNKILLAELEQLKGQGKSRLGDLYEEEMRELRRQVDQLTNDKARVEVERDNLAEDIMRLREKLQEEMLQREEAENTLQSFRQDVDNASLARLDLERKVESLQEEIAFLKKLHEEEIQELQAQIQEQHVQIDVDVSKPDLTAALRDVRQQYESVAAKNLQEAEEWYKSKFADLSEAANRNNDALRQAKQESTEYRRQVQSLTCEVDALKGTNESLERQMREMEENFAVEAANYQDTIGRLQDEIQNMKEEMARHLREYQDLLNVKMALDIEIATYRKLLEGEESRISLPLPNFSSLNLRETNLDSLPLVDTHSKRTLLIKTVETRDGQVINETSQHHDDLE
UniProt Q9UNE7: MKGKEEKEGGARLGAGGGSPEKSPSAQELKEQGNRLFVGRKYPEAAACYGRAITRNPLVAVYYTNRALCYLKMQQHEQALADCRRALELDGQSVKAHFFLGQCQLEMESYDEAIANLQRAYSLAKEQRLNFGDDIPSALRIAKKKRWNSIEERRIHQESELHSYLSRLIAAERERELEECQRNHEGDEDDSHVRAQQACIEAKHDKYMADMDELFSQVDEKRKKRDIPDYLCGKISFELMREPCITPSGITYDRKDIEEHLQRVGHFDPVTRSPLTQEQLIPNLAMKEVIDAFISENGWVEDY
UniProt P19474: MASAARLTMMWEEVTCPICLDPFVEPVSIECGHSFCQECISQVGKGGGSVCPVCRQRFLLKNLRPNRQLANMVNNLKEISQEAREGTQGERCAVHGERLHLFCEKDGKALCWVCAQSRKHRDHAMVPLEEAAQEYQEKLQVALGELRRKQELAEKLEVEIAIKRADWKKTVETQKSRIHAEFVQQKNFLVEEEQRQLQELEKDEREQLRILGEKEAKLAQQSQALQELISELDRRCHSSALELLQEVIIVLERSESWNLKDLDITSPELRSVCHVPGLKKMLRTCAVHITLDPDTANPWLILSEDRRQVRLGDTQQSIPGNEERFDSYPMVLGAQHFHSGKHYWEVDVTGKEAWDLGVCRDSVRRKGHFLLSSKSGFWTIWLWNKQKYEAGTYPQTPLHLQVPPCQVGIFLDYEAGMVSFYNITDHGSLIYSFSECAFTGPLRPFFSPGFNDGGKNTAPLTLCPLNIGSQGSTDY

What was measured:
[1] = molecular target: Myc-Vimentin (human) (UniProt P08670); assay: affinity purification with mass spectrometry; HCT116 transfected with empty vector or Myc-Vimentin; immunoprecipitation coupled LC-MS
[2] = molecular target: Flag-TM9SF1 (human) (UniProt O15321); assay: affinity purification with mass spectrometry; Flag-TM9SF1 stably overexpressing cells, RIPA lysate, anti-Flag or isotype IgG overnight at 4 °C, protein A/G agarose, SDS-PAGE, LC-MS

binding [1]: binds
Molecule: STUB1, endogenous (from UniProt Q9UNE7 1-303)

binding [2]: binds
Molecule: Vimentin, endogenous (from UniProt P08670 1-466)

binding [1]: binds
Molecule: tripartite motif containing 21 (TRIM21), endogenous (from UniProt P19474 1-475)

binding [1]: binds
B1: MKRN2, endogenous (protein, UniProt Q9H000 1-416)
chain: MSTKQITCRYFMHGVCREGSQCLFSHDLANSKPSTICKYYQKGYCAYGTRCRYDHTRPSAAAGGAVGTMAHSVPSPAFHSPHPPSEVTASIVKTNSHEPGKREKRTLVLRDRNLSGMAERKTQPSMVSNPGSCSDPQPSPEMKPHSYLDAIRSGLDDVEASSSYSNEQQLCPYAAAGECRFGDACVYLHGEVCEICRLQVLHPFDPEQRKAHEKICMLTFEHEMEKAFAFQASQDKVCSICMEVILEKASASERRFGILSNCNHTYCLSCIRQWRCAKQFENPIIKSCPECRVISEFVIPSVYWVEDQNKKNELIEAFKQGMGKKACKYFEQGKGTCPFGSKCLYRHAYPDGRLAEPEKPRKQLSSQGTVRFFNSVRLWDFIENRESRHVPNNEDVDMTELGDLFMHLSGVESSEP

binding [1]: binds
B2: RNF128, endogenous (protein, UniProt Q8TEB7 39-428)
chain: AEAVWTAYLNVSWRVPHTGVNRTVWELSEEGVYGQDSPLEPVAGVLVPPDGPGALNACNPHTNFTVPTVWGSTVQVSWLALIQRGGGCTFADKIHLAYERGASGAVIFNFPGTRNEVIPMSHPGAVDIVAIMIGNLKGTKILQSIQRGIQVTMVIEVGKKHGPWVNHYSIFFVSVSFFIITAATVGYFIFYSARRLRNARAQSRKQRQLKADAKKAIGRLQLRTLKQGDKEIGPDGDSCAVCIELYKPNDLVRILTCNHIFHKTCVDPWLLEHRTCPMCKCDILKALGIEVDVEDGSVSLQVPVSNEISNSASSHEEDNRSETASSGYASVQGTDEPPLEEHVQSTNESLQLVNHEANSVAVDVIPHVDNPTFEEDETPNQETAVREIKS
